Test results reported in paper PMC9450150.
These are yes or no findings as the source states them, for the method shown. In cells and extracts the contact can be indirect. Some binding calls cover weakened binding; strength is not graded here.

Sequences of proteins named here, by UniProt entry; tags and fusion partners are left off. A change or cut given only in a name is not applied to a line headed by its entry. A line that says so, or that is headed by a name, gives the form on record, which may keep a tag or linker.
UniProt Q9HC97: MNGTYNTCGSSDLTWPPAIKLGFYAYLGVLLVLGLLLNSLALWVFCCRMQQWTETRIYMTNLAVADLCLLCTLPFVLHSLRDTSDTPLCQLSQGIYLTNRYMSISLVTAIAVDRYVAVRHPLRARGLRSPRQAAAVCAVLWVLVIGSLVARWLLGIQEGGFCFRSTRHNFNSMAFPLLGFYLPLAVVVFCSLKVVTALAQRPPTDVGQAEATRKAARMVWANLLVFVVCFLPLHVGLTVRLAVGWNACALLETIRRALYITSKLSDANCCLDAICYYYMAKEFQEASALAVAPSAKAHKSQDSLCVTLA
N-terminally FLAG-tagged GPR35 long (Q9HC97, form named): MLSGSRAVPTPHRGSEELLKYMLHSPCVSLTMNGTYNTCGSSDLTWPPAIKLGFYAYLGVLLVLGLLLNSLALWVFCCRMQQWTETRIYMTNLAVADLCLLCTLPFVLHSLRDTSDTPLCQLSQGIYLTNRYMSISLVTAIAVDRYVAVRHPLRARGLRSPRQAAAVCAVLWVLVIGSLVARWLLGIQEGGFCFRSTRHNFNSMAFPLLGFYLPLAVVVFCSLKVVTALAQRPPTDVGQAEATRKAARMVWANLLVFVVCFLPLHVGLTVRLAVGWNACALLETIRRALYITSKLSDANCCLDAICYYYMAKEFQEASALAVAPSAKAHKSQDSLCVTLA
GPR35 long Cys27Ser (Q9HC97, form named): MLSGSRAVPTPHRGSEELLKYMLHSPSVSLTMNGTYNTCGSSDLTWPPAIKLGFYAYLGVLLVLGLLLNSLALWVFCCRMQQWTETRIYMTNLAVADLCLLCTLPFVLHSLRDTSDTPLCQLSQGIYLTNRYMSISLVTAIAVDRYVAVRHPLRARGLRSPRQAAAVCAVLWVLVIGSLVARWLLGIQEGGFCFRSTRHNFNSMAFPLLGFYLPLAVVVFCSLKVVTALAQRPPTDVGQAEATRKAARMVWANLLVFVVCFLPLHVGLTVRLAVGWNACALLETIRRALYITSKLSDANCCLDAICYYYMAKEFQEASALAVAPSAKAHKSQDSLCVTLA
UniProt P49407: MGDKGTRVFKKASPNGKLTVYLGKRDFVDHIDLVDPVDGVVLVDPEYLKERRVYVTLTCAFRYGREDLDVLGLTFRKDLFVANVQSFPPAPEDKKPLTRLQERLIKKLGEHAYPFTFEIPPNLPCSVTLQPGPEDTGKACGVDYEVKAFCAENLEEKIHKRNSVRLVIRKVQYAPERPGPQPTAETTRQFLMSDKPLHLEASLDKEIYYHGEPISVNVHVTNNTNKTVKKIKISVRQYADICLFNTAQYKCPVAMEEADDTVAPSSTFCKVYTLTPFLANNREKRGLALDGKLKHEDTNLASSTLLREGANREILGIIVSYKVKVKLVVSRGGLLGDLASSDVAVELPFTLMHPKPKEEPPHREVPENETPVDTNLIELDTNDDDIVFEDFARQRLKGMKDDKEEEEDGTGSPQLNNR

Assays:
[1] = target: C-terminally Nluc-tagged GPR35 short (human) (UniProt Q9HC97); assay: FRET or BRET; intermolecular BRET in living HEK293A cells between C-terminally Nluc-tagged GPR35 and HaloTag-β-arrestin1/2 labelled with NanoBRET 618; stimulation with kynurenic acid; HBSS, 37 °C
[2] = target: C-terminally Nluc-tagged GPR35 long (human) (UniProt Q9HC97); assay: as above
[3] = target: C-terminally Nluc-tagged GPR35 short (human) (UniProt Q9HC97); assay: FRET or BRET; intermolecular BRET in living HEK293A cells between C-terminally Nluc-tagged GPCR and HaloTag-β-arrestin1/2 labelled with NanoBRET 618; stimulation with pamoic acid or zaprinast (GPR35) or isoprenaline (β2AR); HBSS, 37 °C
[4] = target: C-terminally Nluc-tagged GPR35 long (human) (UniProt Q9HC97); assay: as above
[5] = target: GPR35 long Cys27Ser (human) (UniProt Q9HC97); assay: FRET or BRET; β-arrestin2 recruitment to unlabeled GPR35 constructs in living HEK293A cells: Nluc-β-arrestin2 and membrane-anchored HaloTag (bystander BRET); stimulation with pamoic acid; HBSS, 37 °C
[6] = target: N-terminally FLAG-tagged GPR35 long (human) (UniProt Q9HC97); assay: as above
[7] = target: N-terminally FLAG-tagged GPR35 short (human) (UniProt Q9HC97); assay: as above

binding [3]	binding [4]	binding [5]	binding [6]	binding [7]	Substance	binding [1]	binding [2]
binds	binds				HaloTag-β-arrestin1 (from UniProt P49407 1-418)	no binding (condition: with kynurenic acid as the agonist)	no binding (condition: with kynurenic acid as the agonist)
binds	binds				HaloTag-β-arrestin2 (from UniProt P32121 1-409)	no binding (condition: with kynurenic acid as the agonist)	no binding (condition: with kynurenic acid as the agonist)
		binds	binds	binds	Nluc-β-arrestin2 (from UniProt P32121 1-409)		
